Measured values reported in PubChem BioAssay AID1508600 (Functional Genomics Laboratory (NCATS/FGL), 2020).
About 3,700 (7%) of roughly 53,000 sequences were called active.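 Rule for the calls: active = gene knockdowns whose robust z-score for IL-1 alpha signal is at least 2 or at most -2, so actives lie on both sides; inactive = the rest.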 Some of the results follow.

Assay: Components of the Cytosolic LPS Sensing Pathway: Gene Identification via Genome-wide siRNA Screen;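 note: robust z of the log signal after scaling to non-targeting control siRNA wells of the plate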
Conditions: RAW264.7 macrophages, IL-1a HTRF, actives lie on both sides, screened at 100 nM (by protocol), cells primed 5 h with Pam3CSK4 first
Summary of the method: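 Read-out: IL-1a HTRF on supernatant, divided by plate negative-control median ×100, log-transformed and converted to robust z-score. Cells were RAW264.7 given 100 nM siRNA, Pam3CSK4-primed 5 hours, then LipidA-transfected 24 hour.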

Sequence | z-score
UCAGAAUUCGAAAACUGGATT against Olfr1297 | inactive: -0.315
GGAUAAUGGGAUGAGUCCUTT against Kcnq1 | inactive: -1.36
GGACAGCAGUAAAUAUACUTT against Coq3 | inactive: 0.423
GGAAUGCUUAAAGCUUUAATT against Clasp2 | inactive: 0.353
GGUCUUUGUAUUUGAUGUUTT against Ctbs | inactive: -1.48
GGAGAGAAUGGACCAUCUCTT against Rnase10 | inactive: -1.16
CCCAGGACCAUUGUUUGCATT against Olfr745 | inactive: -0.719
GGUCAAAGAAGGAAAACACTT against Foxn1 | inactive: -0.24
GGCCAUUUUCAACAAGAACTT against Cybc1 | inactive: -0.862
GGUUUCCCUUUGUAUCAUGTT against Olfr1451 | inactive: 0.357
GGGUGAAAGUUCAAGGUCUTT against Prss35 | inactive: 1.01
GGGCAGAUGGAAGAGAUCATT against Onecut1 | inactive: -1.4
GGAGCAUCAGACAUUAGACTT against Pdcd2 | inactive: 1.35
GGACAAGAAGCAGGACAUCTT against Golga4 | inactive: 0.128
GCGAAGUGAAGACAUUGUATT against Calm2 | inactive: 0.511
GGACUAGAAAUUAGUACCATT against Klf15 | inactive: 0.928
GCCUUCGGAAAACGAGAAATT against Atpif1 | inactive: -0.0239
GGAAAGCAGGACAAAAGGCTT against Mettl18 | inactive: 0.346
CCUAAAAGUGCCUUACUAATT against Ftdc2 | inactive: 0.679
GGUAUAAUCAAAGGAUAUCTT against Abraxas2 | inactive: 0.524
CCAUGGUACUAAUGUAAAUTT against Eef1e1 | inactive: 0.797
GGCUGAACUAAACUCCACCTT against Eapp | inactive: 0.057

Sequence | z-score
GGGUUUGGACUGAUAUACUTT against Vrk2 | inactive: -0.465
GGCAAUUCACUGUGAGUAATT against Mettl21a | active: -2.18
CCCAGUUCUGUCCUACUUATT against Efcab6 | active: -2.79
GGCUUUAAGAUCGAUACUATT against Cdc73 | inactive: -1.44
GGCCUGGAUUCCUUAACAATT against Lgi1 | active: -3.23
GCCCAUCUUAGCAUUCUCUTT against Aldh4a1 | inactive: -1.91
GGUUAUCCACAUCUUCUCUTT against Mutyh | inactive: 0.334
GCCUUUGAGUUUUAAGCCATT against Cobl | inactive: -1.91
GGAGAAAAUUGCCUAUCUGTT against Tuft1 | inactive: 0.363
GCUCAUGACUUUUAGCGGCTT against Mif | inactive: 0.325
GGCACUCAAUGGUGAGCAATT against Sipa1 | active: 2.03
GGAGUCAGUCCUUAAGCCUTT against Trim30a | inactive: -0.0793
GGCAUUGCUGGACUUUGAATT against Mvp | inactive: -1.71
GGAGAUCACAGAAAAGUAUTT against Pex19 | inactive: -0.0745
GCUAAAGAAAAGUGGAGACTT against Pbdc1 | inactive: 0.165
GGAAGAACAAAAAACCAUGTT against Sf3b2 | active: -2.14
GGGCUAAGGCAAAAACUGATT against Ankrd34a | inactive: -1.94
GGCCCACCGAGAGAAACUATT against Cpsf1 | inactive: -0.0828
GGAAAGUGAGGACAAAUAUTT against Cst8 | inactive: 0.808
CGUGGAACAUAAGAAUGGATT against Gapdhs | inactive: 0.269
GCUCAGACAUGUUCUUACCTT against Myl6b | inactive: 0.172
GGAAUAGAACGAAUUUCUGTT against Lsm11 | inactive: 0.64

Sequence | z-score
GGUUAUUACACUCUACAAATT against Ceacam11 | inactive: 1.05
GCUCAGCAUAUUUGUACAUTT against Thbd | inactive: 0.643
GCUGAUCAACUACUUGAAUTT against Srek1 | inactive: 0.642
CGACAGUGUUAGCAUUAAATT against Pros1 | inactive: -0.901
GGAGGUGGACCAAAAUGUCTT against Prss42 | inactive: -1.17
GGUACCGGAAAGGAAGUGUTT against Grm1 | inactive: -0.467
GCCUUUCUACUUAUUACCATT against Map3k7 | inactive: -0.97
GCCCAGCUAACUUCCACCUTT against Mmp10 | inactive: -1.32
GGGCUUGUAGAUGUGCGUATT against Hic2 | active: 3.32
GGCUGAACAGCACCUCAUGTT against Trim54 | inactive: -0.313
GGCAUGUUCUAUUUUUUGATT against Yod1 | inactive: -0.148
CCAUGCCAUGAGCAUCCAUTT against Bbs2 | inactive: 0.484
CCUCUUCGUUAAUUGGACATT against Fbxw2 | inactive: -0.136
GGAUGCGUUCUAUGUUGCGTT against Odc1 | inactive: 0.377
CCCGCACUCUUAGCAAUUATT against Gtpbp10 | inactive: -0.0268
GCUAUCCCUUUAUGUAACATT against Prl7b1 | inactive: -0.224
CCUGGGCCUUAACAAGAAGTT against Upf1 | inactive: -1.32
GGAGAUUUGCCGUAUGGAUTT against Wwox | inactive: -0.109
GGUCUGAGUUUUAAACAGUTT against Gmfb | inactive: 1.13
GGCCUGAAGAAGAUGCAGGTT against Rpl29 | inactive: 0.119
GCAAUAGAAUCACAUAGGATT against Glyctk | inactive: 1.35
CCCUAUGAUUCCGACAACCTT against Elmod1 | inactive: 1.8

Sequence | z-score
GCGCAGGUUCAAUGUGGAUTT against Prodh | inactive: 1.72
GGCAAUGGACGCAUCACCUTT against Fn1 | inactive: 0.505
GCCAAUAAGCGGAAAAGCATT against Zfp609 | inactive: -1.56
CGGAUAGCUUACUAAUCUUTT against Gas7 | inactive: -1.58
GGAUUUCAACGUGGCAGUUTT against Prss23 | inactive: -0.0724
CCUGGCAAGGUUACGAAGUTT against Gsta3 | inactive: 1.12
GGUUAUCAGUUGCAUUGUUTT against Gpr37l1 | inactive: 0.809
CGCAGAGUUCUAGUAACUCTT against Tcfl5 | inactive: -0.751
GCCUUUAAUCAACCCAAGATT against Scd1 | inactive: -0.728
GCGGUUUUUUUGGAAGCCATT against Ehf | inactive: -0.427
GGACAGCUACUUAUUUCUUTT against Vmn1r56 | inactive: -1.88
GCGGCUAUCUGUAGUAGGUTT against Map3k2 | inactive: -0.132
GCUGCUGUUUAAUUGCUGUTT against Olfr807 | inactive: -0.201
GGAUGAUUUAUGGUUACUGTT against Vmn1r80 | active: 2.01
CGUUUCUCAGCAAACUUACTT against Il17a | inactive: 0.669
GGUACUCCAGAAUAGAAGCTT against Mstn | inactive: 0.0165
GGCUCUGGCCAUAUUUUGGTT against Olfr549 | inactive: -1.44
GCCCUUUCCGUCUGAAAUCTT against Hydin | active: 2.06
GGUCCAAGUAGCUCUUCACTT against Olfr5 | inactive: -1.2
GGAACUUCUCAAAAGGCUGTT against Tspoap1 | inactive: -0.0418
CGGCACUCGAAAGUUUUUATT against Rassf2 | inactive: 0.271
GGGCCUCUUCAUCUUUCUCTT against Adgrd1 | inactive: 0.549

An excerpt taken from the entries so far, as a working copy:
Sequence | z-score
GCCUUUGAGUUUUAAGCCATT against Cobl | inactive: -1.91
GGAGAAAAUUGCCUAUCUGTT against Tuft1 | inactive: 0.363
GCUCAUGACUUUUAGCGGCTT against Mif | inactive: 0.325
GGCACUCAAUGGUGAGCAATT against Sipa1 | active: 2.03
GGAGUCAGUCCUUAAGCCUTT against Trim30a | inactive: -0.0793
GGCAUUGCUGGACUUUGAATT against Mvp | inactive: -1.71
GGAGAUCACAGAAAAGUAUTT against Pex19 | inactive: -0.0745
GCUAAAGAAAAGUGGAGACTT against Pbdc1 | inactive: 0.165
GGAAGAACAAAAAACCAUGTT against Sf3b2 | active: -2.14
GGGCUAAGGCAAAAACUGATT against Ankrd34a | inactive: -1.94
GGCCCACCGAGAGAAACUATT against Cpsf1 | inactive: -0.0828
GGAAAGUGAGGACAAAUAUTT against Cst8 | inactive: 0.808
CGUGGAACAUAAGAAUGGATT against Gapdhs | inactive: 0.269
GCUCAGACAUGUUCUUACCTT against Myl6b | inactive: 0.172
GGAAUAGAACGAAUUUCUGTT against Lsm11 | inactive: 0.64
GGUUAUUACACUCUACAAATT against Ceacam11 | inactive: 1.05
GCUCAGCAUAUUUGUACAUTT against Thbd | inactive: 0.643
GCUGAUCAACUACUUGAAUTT against Srek1 | inactive: 0.642
CGACAGUGUUAGCAUUAAATT against Pros1 | inactive: -0.901
GGAGGUGGACCAAAAUGUCTT against Prss42 | inactive: -1.17
GGUACCGGAAAGGAAGUGUTT against Grm1 | inactive: -0.467
GCCUUUCUACUUAUUACCATT against Map3k7 | inactive: -0.97
GCCCAGCUAACUUCCACCUTT against Mmp10 | inactive: -1.32
GGGCUUGUAGAUGUGCGUATT against Hic2 | active: 3.32
GGCUGAACAGCACCUCAUGTT against Trim54 | inactive: -0.313
GGCAUGUUCUAUUUUUUGATT against Yod1 | inactive: -0.148
CCAUGCCAUGAGCAUCCAUTT against Bbs2 | inactive: 0.484
CCUCUUCGUUAAUUGGACATT against Fbxw2 | inactive: -0.136

Remaining list, next part:

Sequence | z-score
GGAGUUAUACAGGUUUAUGTT against Nup155 | inactive: -1.05
GGACUUCAACAAGACCAUCTT against Proser2 | inactive: 1.55
GGUCUUUUGUAAAAACCCUTT against Sytl2 | inactive: 0.099
CCAGUGGAGUAAACUGUAATT against Ltbp1 | active: 2.24
GGAAAGACAAAAUCUAUGATT against Peg3 | inactive: -0.777
GGAUCAUAUGCAGAAAUCUTT against Zfp62 | inactive: 0.993
GGAGGAGUUUCGCUACGGATT against Sars2 | inactive: -0.00587
GGAAUACCAGACCACACUGTT against Rab7b | inactive: 0.275
GGUGUCAAGAAGAAUGUCCTT against Megf11 | active: 3.2
GGCUCAAAAAGAAAGAGUUTT against Myh2 | inactive: -0.924
CCUCAACACUCAGCUCAAUTT against Ifna14 | active: -2.67
CCUUCGAGAUUGAACUGUATT against Numbl | inactive: 0.192
GGCUGAUGUGGUGUGCUAUTT against Aoah | inactive: -0.0133
GCCUAUCACGAGCUAUGAUTT against Shkbp1 | inactive: -1.5
GGAGAUACGCAGAGUUUGATT against Sgk3 | inactive: -0.0382
CCUUCGUCGACAUUGCUGUTT against Zfp282 | inactive: -0.619
CGUGAAAAAGUUAGCAAGUTT against Tars2 | inactive: 0.198
GGACAUGCUGGGUGAAGAATT against Ikbkg | inactive: -1.84
GCCGGUGAAGACCAUUCACTT against Paox | inactive: 0.571
GGAUCUCGCUGGCAAUAAUTT against Gpr45 | inactive: -0.222
